For the data set, the target named is OsPHR2-6XHIS (Oryza sativa) (UniProt Q6Z156). Description: EMSA. The note with it: 15 mM HEPES pH 8.0, 30 mM KCl, 1 mM MgCl2, 0.2 mM EDTA, 0.02 mM DTT, 0.6% glycerol, 1 ug poly(dI-dC) in 20 ul, 20 °C 30 min (1 h with 15 mM NaH2PO4 for inhibition assay), recombinant protein, residues 1-426, protein details: 6xHis (pET28a), label: DIG 3' end. In general terms: A gel shift assay detects complexes by their altered migration in electrophoresis.

The chains behind the UniProt entries cited, without tags or fusion partners. Where a name states a change or a piece, a line headed by the entry shows the natural chain unless it says otherwise.
UniProt Q6Z156: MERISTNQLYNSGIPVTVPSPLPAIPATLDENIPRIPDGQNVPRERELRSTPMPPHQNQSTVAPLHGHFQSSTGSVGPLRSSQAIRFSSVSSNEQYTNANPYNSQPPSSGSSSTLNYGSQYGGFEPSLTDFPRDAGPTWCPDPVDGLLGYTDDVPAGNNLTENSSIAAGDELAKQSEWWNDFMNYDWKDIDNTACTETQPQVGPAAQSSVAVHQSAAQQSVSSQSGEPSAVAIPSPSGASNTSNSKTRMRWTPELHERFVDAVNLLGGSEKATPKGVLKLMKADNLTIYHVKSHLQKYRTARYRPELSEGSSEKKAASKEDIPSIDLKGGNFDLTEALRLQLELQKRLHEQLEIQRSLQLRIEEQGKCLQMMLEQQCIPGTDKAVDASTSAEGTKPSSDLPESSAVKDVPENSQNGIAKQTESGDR

The exact form of at least one protein or probe is not confirmed. The comparison behind a weaker result is the experiment's own reference, which may not be listed here.

Turning to “TATCCCCGTCACGAATATTCCTCTTCCTCC (double strand) [OsSPX2 promoter P1BS probe]”, the binding result was “binds more weakly” (plus 7.5 ug OsSPX1-6XHIS and 7.5 ug OsJAZ11-GST, 15 mM NaH2PO4, no effect of OsJAZ11 on inhibition); “binds more weakly” (plus 7.5 ug OsSPX1-6XHIS, 15 mM NaH2PO4).

Source of the values: PMC8213676.
